Reference: PubChem BioAssay AID1259276 (Sanger Institute, 2017)
Assay: 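Find kinases whose silencing cuts viability alone or combined with BYL719, cetuximab or trametinib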 (primary screen). Cell system: human C2BBe1 colorectal cancer cells. Reagents: siRNA pool against human genes. Treatment: DMSO vehicle, or one anchor drug: BYL719 at 1 µM, cetuximab at 5 µg/ml, or trametinib at 10 nM; exposure length not stated. Measurement: 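Viability after knock-down relative to non-targeting siRNA controls, averaged across replicates, given as ratio and control-derived robust z-score, with per-drug synergy scores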. Scale: viability robust z-score, siRNA alone and viability vs control, siRNA alone: higher = more viable cells after knock-down; synergy score with BYL719: higher = stronger combined killing with BYL719; synergy score with cetuximab: higher = stronger combined killing with cetuximab; synergy score with trametinib: higher = stronger combined killing with trametinib. Call rule: 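Called essential when knock-down alone gives a viability robust z-score below -3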. Calls: active = essential (siRNA alone); inactive = no change (siRNA alone).
This is a random part of 794 reagents. In the full data, 24 (3%) got an active call. 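Calls come only from the siRNA-alone arm; drug synergy scores do not affect them.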 A number with no mark means an inactive call. Viability is capped at 1. Not stated in the record: the amount of reagent, the time to read-out.

The first 6 entries, to show the layout:
no.	Target gene	viability robust z-score, siRNA alone	viability vs control, siRNA alone	synergy score with BYL719	synergy score with cetuximab	synergy score with trametinib
1	DYRK1A	-0.431	0.943	-0.116	-0.0678	0.111
2	AKAP9	0.472	1	-0.0544	0.0098	-0.0667
3	DNMT3A	0.472	1	-0.0685	-0.0115	-0.0667
4	NPR2	0.472	1	-0.142	0.557	-0.0667
5	DBF4	-3.31 (active)	0.762	-0.2	0.0463	-0.238
6	IPMK	0.242	0.985	-0.0705	-0.0258	-0.0802

Main list, from the start:
no.	Target gene	viability robust z-score, siRNA alone	viability vs control, siRNA alone	synergy score with BYL719	synergy score with cetuximab	synergy score with trametinib
1	DYRK1A	-0.431	0.943	-0.116	-0.0678	0.111
2	AKAP9	0.472	1	-0.0544	0.0098	-0.0667
3	DNMT3A	0.472	1	-0.0685	-0.0115	-0.0667
4	NPR2	0.472	1	-0.142	0.557	-0.0667
5	DBF4	-3.31 (active)	0.762	-0.2	0.0463	-0.238
6	IPMK	0.242	0.985	-0.0705	-0.0258	-0.0802
7	ADK	-1.63	0.867	-0.0496	-0.143	-0.133
8	MAP3K9	0.472	1	0.182	-0.0115	-0.0667
9	FGFR3	0.472	1	0.0819	-0.0115	-0.0667
10	MAP2K3	0.472	1	0.28	-0.0115	-0.0667
11	RPS6KA1	0.472	1	0.00197	-0.0115	0.0124
12	DYRK3	0.472	1	0.0519	0.0102	-0.0667
13	ARID1A	0.472	1	0.0274	0.0548	-0.0651
14	IGF2R	0.472	1	0.203	-0.0115	-0.0667
15	CKB	0.472	1	-0.142	-0.0115	-0.0667
16	MAST3	0.472	1	0.1	0.238	0.0498
17	EPHA5	-1.16	0.897	-0.196	-0.113	0.0889
18	PTPN11	0.472	1	-0.0999	-0.0115	-0.0667
19	EPHB6	0.472	1	0.0115	-0.0115	-0.0667
20	TNNI3K	0.472	1	-0.142	-0.0115	-0.0667
21	ALPK1	0.273	0.987	0.0448	0.0433	-0.0784
22	FASTK	0.472	1	-0.0355	0.106	-0.0496
23	ROS1	0.472	1	0.18	0.0861	0.237
24	BTK	0.472	1	0.00567	-0.0115	-0.0667
25	PKMYT1	0.472	1	-0.142	0.0469	-0.0667
26	NR4A2	0.472	1	-0.0611	0.113	0.112
27	CKMT1B	0.472	1	-0.142	-0.0115	0.161
28	STK4	0.472	1	0.13	0.105	0.166
29	PIP5K1A	-1.78	0.858	-0.132	-0.152	-0.199
30	ETNK1	0.472	1	0.0363	-0.0115	-0.0667
31	CAMKK2	0.472	1	-0.0841	-0.0115	-0.0198
32	MAPK14	0.169	0.981	0.141	0.0526	0.0283
33	JAK1	0.472	1	-0.0736	-0.0115	-0.0667
34	STRADA	0.472	1	-0.087	-0.0115	-0.0667
35	RPS6KC1	0.472	1	-0.09	-0.0115	-0.0667
36	NME3	0.472	1	-0.0374	-0.0115	0.017
37	GUCY2D	-2.4	0.819	0.102	0.203	0.103
38	NME1	0.472	1	0.0691	-0.0115	-0.0667
39	CDKL5	0.472	1	-0.00603	-0.0115	-0.0667
40	TLK2	0.472	1	-0.142	-0.0115	-0.0667
41	AK7	-0.709	0.926	-0.0638	-0.0402	-0.0551
42	CDC42BPA	-1.93	0.848	-0.00117	-0.0725	-0.0234
43	CDC42BPG	0.472	1	-0.142	-0.0115	-0.0667
44	CSNK2B	0.472	1	-0.0929	-0.0115	-0.0577
45	DGKK	0.472	1	0.0098	-0.0023	-0.0667
46	PHKB	0.472	1	-0.0084	-0.0115	0.00604
47	ADCK1	0.472	1	0.0806	-0.0115	-0.0667
48	RIPK1	-4.27 (active)	0.701	-0.173	0.0133	-0.19
49	SF3B1	-2.17	0.834	0.0546	0.0254	-0.0914
50	ELF3	-2.42	0.818	-0.113	-0.109	-0.237
